The source of these data is paper PMC11230511.

By UniProt entry, the sequences of proteins in these tests, tags left out.
UniProt Q12834: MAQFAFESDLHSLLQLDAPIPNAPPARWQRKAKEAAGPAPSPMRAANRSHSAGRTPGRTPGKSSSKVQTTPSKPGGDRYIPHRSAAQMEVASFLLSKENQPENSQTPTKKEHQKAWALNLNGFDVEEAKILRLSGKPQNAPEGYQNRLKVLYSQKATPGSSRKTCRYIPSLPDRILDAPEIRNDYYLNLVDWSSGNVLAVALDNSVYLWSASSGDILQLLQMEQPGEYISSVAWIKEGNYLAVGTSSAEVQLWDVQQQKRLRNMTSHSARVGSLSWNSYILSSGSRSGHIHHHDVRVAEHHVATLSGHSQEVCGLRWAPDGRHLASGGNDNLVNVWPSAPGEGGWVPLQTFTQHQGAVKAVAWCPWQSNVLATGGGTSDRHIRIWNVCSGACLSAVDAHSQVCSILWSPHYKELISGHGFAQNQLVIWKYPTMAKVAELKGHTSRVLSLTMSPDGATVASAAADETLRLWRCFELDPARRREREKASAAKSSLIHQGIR
UniProt P78527: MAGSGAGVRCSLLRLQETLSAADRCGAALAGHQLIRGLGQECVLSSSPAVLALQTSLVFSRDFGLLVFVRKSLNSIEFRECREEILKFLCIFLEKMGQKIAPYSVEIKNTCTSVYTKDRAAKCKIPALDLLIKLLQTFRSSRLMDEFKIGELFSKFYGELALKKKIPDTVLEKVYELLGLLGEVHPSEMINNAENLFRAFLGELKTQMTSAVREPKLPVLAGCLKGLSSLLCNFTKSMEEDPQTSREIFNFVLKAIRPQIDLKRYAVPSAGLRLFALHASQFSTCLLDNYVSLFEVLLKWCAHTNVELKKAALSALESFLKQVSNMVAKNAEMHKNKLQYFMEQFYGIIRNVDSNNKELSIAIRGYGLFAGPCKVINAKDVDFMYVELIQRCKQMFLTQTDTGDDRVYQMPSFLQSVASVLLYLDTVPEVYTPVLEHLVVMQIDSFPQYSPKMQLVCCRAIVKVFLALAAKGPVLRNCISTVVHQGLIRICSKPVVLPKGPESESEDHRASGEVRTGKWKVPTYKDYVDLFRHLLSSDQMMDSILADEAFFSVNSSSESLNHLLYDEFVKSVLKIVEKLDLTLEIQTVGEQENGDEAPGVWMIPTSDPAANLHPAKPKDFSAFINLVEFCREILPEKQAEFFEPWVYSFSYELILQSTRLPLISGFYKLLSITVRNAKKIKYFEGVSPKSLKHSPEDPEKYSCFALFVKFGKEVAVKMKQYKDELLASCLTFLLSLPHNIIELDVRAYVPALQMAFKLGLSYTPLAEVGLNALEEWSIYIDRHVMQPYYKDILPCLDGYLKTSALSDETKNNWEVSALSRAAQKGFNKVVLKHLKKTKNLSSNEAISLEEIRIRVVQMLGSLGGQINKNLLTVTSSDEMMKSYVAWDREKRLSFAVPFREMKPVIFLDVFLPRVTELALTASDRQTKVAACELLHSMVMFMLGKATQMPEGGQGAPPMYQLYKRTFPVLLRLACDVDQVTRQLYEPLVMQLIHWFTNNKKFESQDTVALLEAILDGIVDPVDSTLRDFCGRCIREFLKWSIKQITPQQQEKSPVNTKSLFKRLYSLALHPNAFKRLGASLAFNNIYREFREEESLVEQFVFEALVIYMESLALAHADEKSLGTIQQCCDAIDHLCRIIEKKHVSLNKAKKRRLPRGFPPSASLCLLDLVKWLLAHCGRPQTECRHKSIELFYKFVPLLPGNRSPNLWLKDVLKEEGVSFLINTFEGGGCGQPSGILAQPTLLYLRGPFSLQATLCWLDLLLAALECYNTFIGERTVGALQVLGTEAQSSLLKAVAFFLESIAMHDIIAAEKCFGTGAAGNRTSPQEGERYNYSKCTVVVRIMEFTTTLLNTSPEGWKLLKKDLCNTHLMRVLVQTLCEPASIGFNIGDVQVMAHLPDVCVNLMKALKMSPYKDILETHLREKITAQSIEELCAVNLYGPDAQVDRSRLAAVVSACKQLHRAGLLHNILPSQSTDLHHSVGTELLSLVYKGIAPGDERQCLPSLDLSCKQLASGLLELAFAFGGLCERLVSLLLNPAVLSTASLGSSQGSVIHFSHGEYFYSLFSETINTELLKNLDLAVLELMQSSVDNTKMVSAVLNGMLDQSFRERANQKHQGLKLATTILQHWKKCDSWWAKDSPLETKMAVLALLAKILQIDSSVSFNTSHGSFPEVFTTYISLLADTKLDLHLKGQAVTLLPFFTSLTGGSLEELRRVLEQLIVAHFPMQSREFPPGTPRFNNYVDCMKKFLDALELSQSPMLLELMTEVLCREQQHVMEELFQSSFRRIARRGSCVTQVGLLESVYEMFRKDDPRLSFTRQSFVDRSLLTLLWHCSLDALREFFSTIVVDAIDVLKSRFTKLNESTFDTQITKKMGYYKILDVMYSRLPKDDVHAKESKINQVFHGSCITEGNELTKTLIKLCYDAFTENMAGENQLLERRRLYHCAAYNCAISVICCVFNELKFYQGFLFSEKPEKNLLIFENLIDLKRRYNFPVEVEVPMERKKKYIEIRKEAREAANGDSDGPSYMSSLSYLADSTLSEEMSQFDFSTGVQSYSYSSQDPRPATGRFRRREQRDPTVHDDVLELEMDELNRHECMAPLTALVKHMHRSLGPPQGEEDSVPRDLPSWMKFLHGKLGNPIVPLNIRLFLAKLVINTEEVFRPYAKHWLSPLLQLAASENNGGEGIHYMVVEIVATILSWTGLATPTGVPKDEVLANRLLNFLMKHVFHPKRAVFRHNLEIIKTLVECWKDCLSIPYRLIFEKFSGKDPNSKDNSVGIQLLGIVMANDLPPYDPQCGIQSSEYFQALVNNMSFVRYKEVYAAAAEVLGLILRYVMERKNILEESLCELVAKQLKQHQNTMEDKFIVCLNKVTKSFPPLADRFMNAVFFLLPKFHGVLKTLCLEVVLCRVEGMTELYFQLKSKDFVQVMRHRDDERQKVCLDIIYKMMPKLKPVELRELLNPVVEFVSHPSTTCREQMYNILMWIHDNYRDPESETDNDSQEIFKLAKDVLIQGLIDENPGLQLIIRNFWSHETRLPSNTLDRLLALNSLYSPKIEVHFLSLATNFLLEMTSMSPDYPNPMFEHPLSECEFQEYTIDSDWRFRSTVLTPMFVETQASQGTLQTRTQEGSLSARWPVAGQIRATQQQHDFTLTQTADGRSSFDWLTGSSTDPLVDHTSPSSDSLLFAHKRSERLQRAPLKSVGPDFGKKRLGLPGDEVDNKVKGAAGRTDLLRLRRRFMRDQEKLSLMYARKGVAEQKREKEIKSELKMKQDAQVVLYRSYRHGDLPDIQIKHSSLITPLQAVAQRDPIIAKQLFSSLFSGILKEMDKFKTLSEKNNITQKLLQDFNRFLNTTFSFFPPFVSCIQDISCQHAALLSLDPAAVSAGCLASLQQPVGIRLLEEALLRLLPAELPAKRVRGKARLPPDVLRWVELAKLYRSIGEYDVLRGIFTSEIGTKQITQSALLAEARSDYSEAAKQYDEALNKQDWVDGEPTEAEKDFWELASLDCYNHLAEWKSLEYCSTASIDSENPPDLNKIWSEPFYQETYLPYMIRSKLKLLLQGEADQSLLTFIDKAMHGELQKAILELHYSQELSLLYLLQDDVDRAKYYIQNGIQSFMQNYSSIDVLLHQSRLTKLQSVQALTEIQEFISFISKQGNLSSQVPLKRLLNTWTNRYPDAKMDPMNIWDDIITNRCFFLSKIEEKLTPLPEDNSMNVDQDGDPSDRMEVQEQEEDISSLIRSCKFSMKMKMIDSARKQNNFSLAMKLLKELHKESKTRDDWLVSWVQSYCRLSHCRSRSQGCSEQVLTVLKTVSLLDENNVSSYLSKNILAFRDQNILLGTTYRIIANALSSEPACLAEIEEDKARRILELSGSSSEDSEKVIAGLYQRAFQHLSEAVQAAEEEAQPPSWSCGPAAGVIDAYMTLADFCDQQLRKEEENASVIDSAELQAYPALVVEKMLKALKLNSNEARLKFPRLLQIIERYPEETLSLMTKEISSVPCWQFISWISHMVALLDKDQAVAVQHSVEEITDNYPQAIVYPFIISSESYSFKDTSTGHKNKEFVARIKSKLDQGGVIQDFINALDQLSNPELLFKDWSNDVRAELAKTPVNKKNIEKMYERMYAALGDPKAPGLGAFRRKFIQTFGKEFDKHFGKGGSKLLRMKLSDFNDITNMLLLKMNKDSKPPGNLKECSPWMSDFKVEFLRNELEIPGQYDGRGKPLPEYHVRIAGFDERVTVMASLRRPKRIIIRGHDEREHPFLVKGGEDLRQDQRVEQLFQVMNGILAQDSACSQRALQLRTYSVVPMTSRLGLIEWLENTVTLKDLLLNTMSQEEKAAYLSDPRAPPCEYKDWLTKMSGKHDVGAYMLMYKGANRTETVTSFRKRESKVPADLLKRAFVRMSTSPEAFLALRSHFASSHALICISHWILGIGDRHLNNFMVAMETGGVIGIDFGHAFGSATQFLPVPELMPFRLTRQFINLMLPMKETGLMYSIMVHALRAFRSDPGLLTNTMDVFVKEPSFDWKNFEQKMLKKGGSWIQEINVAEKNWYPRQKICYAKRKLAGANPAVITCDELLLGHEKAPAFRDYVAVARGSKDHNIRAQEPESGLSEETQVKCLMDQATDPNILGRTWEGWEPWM
UniProt Q9NXR7: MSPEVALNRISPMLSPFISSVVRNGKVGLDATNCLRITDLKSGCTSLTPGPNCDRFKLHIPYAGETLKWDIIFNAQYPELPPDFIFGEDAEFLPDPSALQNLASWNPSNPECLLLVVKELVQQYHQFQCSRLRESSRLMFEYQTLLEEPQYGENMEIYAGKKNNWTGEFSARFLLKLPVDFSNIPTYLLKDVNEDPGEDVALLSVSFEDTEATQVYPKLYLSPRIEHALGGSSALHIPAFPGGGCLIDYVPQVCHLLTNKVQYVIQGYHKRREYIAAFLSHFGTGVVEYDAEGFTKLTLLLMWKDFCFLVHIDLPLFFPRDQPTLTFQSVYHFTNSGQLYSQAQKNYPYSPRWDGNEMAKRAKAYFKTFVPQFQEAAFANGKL

Results are given in words; binding and its absence hold for the method and conditions named. Binding seen in cells or lysates may run through a third protein. These calls come from enrichment with a bait or labelling near it, and not all partners need be listed. Sequences can lack the tags named with a protein.

The labels stand for the following.
T1: GST-tagged FLCN (folliculin) (human) (UniProt Q8NFG4)
T1 sequence: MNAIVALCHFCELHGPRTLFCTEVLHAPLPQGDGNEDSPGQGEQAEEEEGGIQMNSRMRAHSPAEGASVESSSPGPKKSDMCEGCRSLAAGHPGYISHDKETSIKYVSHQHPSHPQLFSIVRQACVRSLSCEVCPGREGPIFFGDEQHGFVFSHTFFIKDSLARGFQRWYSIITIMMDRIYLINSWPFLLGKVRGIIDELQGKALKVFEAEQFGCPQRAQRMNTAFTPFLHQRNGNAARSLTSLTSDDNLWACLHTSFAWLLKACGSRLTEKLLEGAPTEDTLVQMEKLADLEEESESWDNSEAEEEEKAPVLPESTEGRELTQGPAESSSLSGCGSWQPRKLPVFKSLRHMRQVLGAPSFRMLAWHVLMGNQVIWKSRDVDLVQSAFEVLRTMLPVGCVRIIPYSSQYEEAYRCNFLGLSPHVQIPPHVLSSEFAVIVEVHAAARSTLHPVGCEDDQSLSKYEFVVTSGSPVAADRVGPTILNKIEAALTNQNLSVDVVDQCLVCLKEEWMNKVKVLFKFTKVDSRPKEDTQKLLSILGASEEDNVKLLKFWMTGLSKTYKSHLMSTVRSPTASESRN

B1: co-chaperone CDC37 (protein, UniProt Q16543 1-378)
chain: MVDYSVWDHIEVSDDEDETHPNIDTASLFRWRHQARVERMEQFQKEKEELDRGCRECKRKVAECQRKLKELEVAEGGKAELERLQAEAQQLRKEERSWEQKLEEMRKKEKSMPWNVDTLSKDGFSKSMVNTKPEKTEEDSEEVREQKHKTFVEKYEKQIKHFGMLRRWDDSQKYLSDNVHLVCEETANYLVIWCIDLEVEEKCALMEQVAHQTIVMQFILELAKSLKVDPRACFRQFFTKIKTADRQYMEGFNDELEAFKERVRGRAKLRIEKAMKEYEEEERKKRLGPGGLDPVEVYESLPEELQKCFDVKDVQMLQDAISKMDPTDAKYHMQRCIDSGLWVPNSKASEAKEGEEAGPGDPLLEAVPKTGDEKDVSV
B2: FLCN interacting protein 1 (FNIP1) (protein, UniProt Q8TF40 1-1166)
chain: MAPTLFQKLFSKRTGLGAPGRDARDPDCGFSWPLPEFDPSQIRLIVYQDCERRGRNVLFDSSVKRRNEDISVSKLGSDAQVKVFGKCCQLKPGGDSSSSLDSSVTSSSDIKDQCLKYQGSRCSSDANMLGEMMFGSVAMSYKGSTLKIHQIRSPPQLMLSKVFTARTGSSICGSLNTLQDSLEFINQDNNTLKADNNTVINGLLGNIGLSQFCSPRRAFSEQGPLRLIRSASFFAVHSNPMDMPGRELNEDRDSGIARSASLSSLLITPFPSPNSSLTRSCASSYQRRWRRSQTTSLENGVFPRWSIEESFNLSDESCGPNPGIVRKKKIAIGVIFSLSKDEDENNKFNEFFFSHFPLFESHMNKLKSAIEQAMKMSRRSADASQRSLAYNRIVDALNEFRTTICNLYTMPRIGEPVWLTMMSGTPEKNHLCYRFMKEFTFLMENASKNQFLPALITAVLTNHLAWVPTVMPNGQPPIKIFLEKHSSQSVDMLAKTHPYNPLWAQLGDLYGAIGSPVRLARTVVVGKRQDMVQRLLYFLTYFIRCSELQETHLLENGEDEAIVMPGTVITTTLEKGEIEESEYVLVTMHRNKSSLLFKESEEIRTPNCNCKYCSHPLLGQNVENISQQEREDIQNSSKELLGISDECQMISPSDCQEENAVDVKQYRDKLRTCFDAKLETVVCTGSVPVDKCALSESGLESTEETWQSEKLLDSDSHTGKAMRSTGMVVEKKPPDKIVPASFSCEAAQTKVTFLIGDSMSPDSDTELRSQAVVDQITRHHTKPLKEERGAIDQHQETKQTTKDQSGESDTQNMVSEEPCELPCWNHSDPESMSLFDEYFNDDSIETRTIDDVPFKTSTDSKDHCCMLEFSKILCTKNNKQNNEFCKCIETVPQDSCKTCFPQQDQRDTLSILVPHGDKESSDKKIAVGTEWDIPRNESSDSALGDSESEDTGHDMTRQVSSYYGGEQEDWAEEDEIPFPGSKLIEVSAVQPNIANFGRSLLGGYCSSYVPDFVLQGIGSDERFRQCLMSDLSHAVQHPVLDEPIAEAVCIIADMDKWTVQVASSQRRVTDNKLGKEVLVSSLVSNLLHSTLQLYKHNLSPNFCVMHLEDRLQELYFKSKMLSEYLRGQMRVHVKELGVVLGIESSDLPLLAAVASTHSPYVAQILL

The assay addresses T1, GST-tagged FLCN (folliculin) (human). In words: affinity purification with mass spectrometry; GST-FLCN overexpressed in HEK293 cells, purified on glutathione-Sepharose beads, bound proteins separated by SDS-PAGE, gel sectioned, LC-MS/MS.
On to CDC20 (from UniProt Q12834 1-499), for which the binding entry is “binds”.
Then “DNA-dependent protein kinase catalytic subunit (DNA-PKcs) (from UniProt P78527 1-4128) (enzyme)”, with “binds”.
Then “BRCA1 A complex component, BRE (from UniProt Q9NXR7 1-383)”, with “binds”.
In the case of TP53 (from UniProt P04637 1-393), the binding result is on record as “binds”.
Next, B1: “binds”; B2: “binds”.
